Test results taken from PMC12041353.
These are yes or no findings as the source states them, for the method shown. In cells and extracts the contact can be indirect. A yes stands for co-enrichment or nearness to the bait. Other partners may have been found.

By UniProt entry, the sequences of proteins in these tests, tags left out.
UniProt Q9GZV5: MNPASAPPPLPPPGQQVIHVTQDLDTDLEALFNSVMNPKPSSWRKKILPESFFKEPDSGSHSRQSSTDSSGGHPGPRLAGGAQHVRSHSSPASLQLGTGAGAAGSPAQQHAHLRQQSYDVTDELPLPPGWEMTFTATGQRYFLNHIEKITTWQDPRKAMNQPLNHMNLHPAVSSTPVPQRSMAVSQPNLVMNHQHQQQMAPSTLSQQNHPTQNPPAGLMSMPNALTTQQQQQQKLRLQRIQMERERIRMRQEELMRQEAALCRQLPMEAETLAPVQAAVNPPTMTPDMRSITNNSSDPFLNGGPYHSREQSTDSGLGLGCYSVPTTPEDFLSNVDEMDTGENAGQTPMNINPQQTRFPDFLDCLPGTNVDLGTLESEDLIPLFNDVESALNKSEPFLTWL

Target: TAZ (transcriptional coactivator with PDZ-binding motif), endogenous (human (endogenous in T24)) (UniProt Q9GZV5)
Test: affinity purification with mass spectrometry; IP in T24 cells followed by mass spectrometry to identify TAZ-interacting proteins

- binding: binds
B1: NRF2 (nuclear factor erythroid 2-related factor 2), endogenous (protein, UniProt Q16236 1-605)
chain: MMDLELPPPGLPSQQDMDLIDILWRQDIDLGVSREVFDFSQRRKEYELEKQKKLEKERQEQLQKEQEKAFFAQLQLDEETGEFLPIQPAQHIQSETSGSANYSQVAHIPKSDALYFDDCMQLLAQTFPFVDDNEVSSATFQSLVPDIPGHIESPVFIATNQAQSPETSVAQVAPVDLDGMQQDIEQVWEELLSIPELQCLNIENDKLVETTMVPSPEAKLTEVDNYHFYSSIPSMEKEVGNCSPHFLNAFEDSFSSILSTEDPNQLTVNSLNSDATVNTDFGDEFYSAFIAEPSISNSMPSPATLSHSLSELLNGPIDVSDLSLCKAFNQNHPESTAEFNDSDSGISLNTSPSVASPEHSVESSSYGDTLLGLSDSEVEELDSAPGSVKQNGPKTPVHSSGDMVQPLSPSQGQSTHVHDAQCENTPEKELPVSPGHRKTPFTKDKHSSRLEAHLTRDELRAKALHIPFPVEKIINLPVVDFNEMMSKEQFNEAQLALIRDIRRRGKNKVAAQNCRKRKLENIVELEQDLDHLKDEKEKLLKEKGENDKSLHLLKKQLSTLYLEVFSMLRDEDGKPYSPSEYSLQQTRDGNVFLVPKSKKPDVKKN
